Results are given in words; binding and its absence hold for the method and conditions named. Some results given as binding are weak or reduced against the parent protein; the word gives no strength.
Biological target: T1, C-reactive protein, P02741
T1 chain: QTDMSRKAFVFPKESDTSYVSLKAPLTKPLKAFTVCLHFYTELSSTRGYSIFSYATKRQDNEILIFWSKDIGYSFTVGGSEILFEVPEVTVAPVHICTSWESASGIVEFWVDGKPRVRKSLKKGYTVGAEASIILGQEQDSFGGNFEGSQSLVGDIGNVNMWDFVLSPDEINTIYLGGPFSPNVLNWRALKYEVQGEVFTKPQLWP
Assay: native MS; modified TIMS-Q-SID-TOF; 200 mM ammonium acetate, with or without charge reduction by 20% (v/v) TEAA; 0.7 to 3 uM per complex; single charge state isolated and fragmented by surface-induced dissociation; both purified
Conditions: remark: other sources report otherwise

binding: binds
B1: C-reactive protein, P02741 19-224 (protein)
chain: QTDMSRKAFVFPKESDTSYVSLKAPLTKPLKAFTVCLHFYTELSSTRGYSIFSYATKRQDNEILIFWSKDIGYSFTVGGSEILFEVPEVTVAPVHICTSWESASGIVEFWVDGKPRVRKSLKKGYTVGAEASIILGQEQDSFGGNFEGSQSLVGDIGNVNMWDFVLSPDEINTIYLGGPFSPNVLNWRALKYEVQGEVFTKPQLWP

Source: paper PMC13054468 (Analytical chemistry, 2025)
